# Among all 340,000 compounds or so, about 170 (0.05%) were called active. This list was built around the results that the source calls inconclusive (neither active nor inactive); the mix of calls is not that of the screen. Calls come from the whole dose curve; as a rule, active = well fitted inhibition curve with a large enough effect in the signal ratio, with a control signal flat (not every such curve was filed as active); inconclusive = small, poorly fitted or top-dose-only effect, or effect the other way, or a change in a side signal; inactive = flat fitted curve, though single readings scatter; the % refers to the signal ratio. Potencies beside an inconclusive call are fits to weak or partial responses and may not hold up.
# Experiment: qHTS Assay to Find Inhibitors of Chronic Active B-Cell Receptor Signaling;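 for activity change, negative = inhibition: plate controls were basal doxycycline-induced cells for no effect and cells given 10 µM MG132 for full effect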
# Conditions: ABC-DLBCL IkBa-CBG/CBR reporter, luminescence ratio (green luciferase fused to IkBa over red control in TMD8 lymphoma cells), 4 h; activity change, negative = inhibition: at 46.1 µM (top of the series)
# How it was run: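 Concentration-response series (up to 46 uM) were applied to TMD8 dual-reporter cells for 4 h at 37C with doxycycline. Green/red ratio, after filter-overlap correction, defined %Activity; red signal alone was normalised to basal cells and zero luminescence.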
# Potency is the fitted concentration of half-maximal effect.
Structure (SMILES),"activity change, negative = inhibition",Potency
COc1ccc(NC(=S)N2CCC(NC(=O)C3CCCCC3)CC2)cc1,inconclusive: 11.5%,–
COc1ccc(C2CC(c3ccccc3)=NN2C(=O)CN2N=NC3C(=O)N(c4cccc(F)c4)C(=O)C32)cc1 (stereo not given),inconclusive: 14.1%,–
CN(C)/C=C1/N=C(c2ccccc2)OC1=O,inconclusive: 2.07%,–
O=C(O)CCCCN1C(=O)/C(=C\c2ccc(OCc3ccccc3)c(OCc3ccccc3)c2)SC1=S,–,"inconclusive: 14.1 µM [falling, partial curve]"
O=C(c1cccc(F)c1)N1CCN(S(=O)(=O)Cc2ccccc2)CC1,inactive,–
COc1ccc(-c2nnc(SCC(=O)OC3CCCCC3)o2)cc1OC,–,"inconclusive: 35.5 µM [falling, single point]"
NS(=O)(=O)c1ccc(CCNC(=O)CCCCCn2c(=S)[nH]c3ccc(Br)cc3c2=O)cc1,inconclusive: -13.6%,–
Cc1cccc(/C=N/NC(=O)c2ccc(NC(=O)c3ccc(Cl)cc3)cc2)n1,inactive,–
Cc1[nH]c2ccccc2c(=O)c1CN(C)Cc1ccccc1,–,"inconclusive: 29.1 µM [falling, single point]"
Cn1c(=O)c2c(ncn2CCC(=O)N/N=C/c2cccnc2)n(C)c1=O,inactive,–
Cc1ccc(OCc2cc(C(=O)N3CCC(C(O)C(C)C)CC3)no2)cc1C (stereo not given),inconclusive: -11.4%,–
CCOC(=O)C1CCN(C(=O)CCC2CCCC2)CC1,inactive,–
CCC(=O)N(Cc1cc(=O)[nH]c2ccccc12)c1ccccc1C,–,"inconclusive: 11.2 µM [falling, partial curve, poor fit]"
CCOC(=O)c1c(C)[nH]c(C)c1S(=O)(=O)NCC1CCN(Cc2cccc(Cl)c2)CC1,inconclusive: -13.5%,–
COC(=O)c1ccc(N2CCOCC2)c(F)c1,inconclusive: 18.8%,–
O=C1Nc2ccccc2N(O)N1c1cc(-c2ccccc2Cl)no1,–,"inconclusive: 3.66 µM [falling, partial curve]"
C=CCC[C@@H](Cc1ccc(F)cc1)C(=O)OC[C@@H](Cc1c[nH]c2ccccc12)NC(=O)[C@H](CC=C)CC(=O)NCCO,inconclusive: -2.21%,–
CN(c1ccc(OCC(=O)Nc2nc3ccccc3s2)cc1)S(=O)(=O)c1ccccc1,inactive,–
Cc1cc(-n2c(C)cc(C(=O)CCl)c2C)no1,–,"inconclusive: 35.5 µM [falling, single point]"
COc1ccccc1N1CCN(C(=S)NC(=O)/C=C/c2ccc(F)cc2)CC1,–,"inconclusive: 35.5 µM [falling, single point]"
O=C1N/C(=N/Nc2ccccc2)S/C1=C\c1ccccc1,–,"inconclusive: 15.8 µM [falling, partial curve]"
O=C(OCc1cc(Cl)cc2c1OCOC2)c1cccnc1Cl,inconclusive: 5.49%,–
Cc1ccc(C(=O)c2cc3ccccc3o2)cc1C,–,"inconclusive: 2.59 µM [rising, full curve, poor fit]"
CSc1ccccc1NC(=S)Nc1cc(C)cc(C)c1,inactive,–
CSc1nnc(C2CCCN(CC(=O)Nc3ccccc3N3CCOCC3)C2)n1C(C)C (stereo not given),inconclusive: -7.14%,–
Cc1nn(CC(O)COc2ccc3c(c2)CCC3)c(C)c1C (stereo not given),inconclusive: 3.66%,–
Cc1cccc(N2CCN(C(=O)CCC(=O)N3CC(C)Oc4ccc(C)cc43)CC2C)c1 (stereo not given),inactive,–

Structure (SMILES),"activity change, negative = inhibition",Potency
Cc1cc(-c2ccccc2)nc(-c2ccccc2)c1C,–,"inconclusive: 31.6 µM [rising, single point]"
CCN1C(=O)c2cccc3c(S(=O)(=O)Nc4ccccc4)ccc1c23,inconclusive: 3.43%,–
COc1ccc(NC(=O)CN(Cc2ccco2)Cc2ccco2)cc1S(=O)(=O)N1CCCCC1,inconclusive: 5.41%,–
NC(=O)c1sc2nc3c(c(-c4ccco4)c2c1N)CCC3,–,"inconclusive: 4.11 µM [rising, partial curve]"
NS(=O)(=O)c1ccc(NC(=S)NCc2cccc(Cl)c2)cc1,inactive,–
CN(Cc1ccccc1)c1nc(CN2CCOCC2)nc2scc(-c3ccccc3)c12,inconclusive: 0.405%,–
N#C/C(=C(/O)CN1CCCC1)c1nc(-c2ccccc2)cs1,–,"inconclusive: 25.1 µM [falling, partial curve]"
N/C(CS(=O)(=O)c1ccccc1)=N\OC(=O)c1ccc(F)cc1,inactive,–
COc1ccc(Cn2c(C)cc3c(c2=O)C(c2cccs2)C(C#N)=C(N)O3)cc1OC (stereo not given),inconclusive: -3.92%,–
O=C(CN1CCCCCC1)Nc1c(Cl)cc(Cl)cc1Cl,inconclusive: 3.5%,–
O=C(NN=Cc1ccccc1OC(F)F)c1ccc(NS(=O)(=O)c2cccs2)cc1,–,"inconclusive: 23.1 µM [falling, partial curve]"
COCCN1CCn2c(nc3cc(NC(=O)Cn4nc(C)c5ccccc5c4=O)ccc32)C1,inconclusive: 6.21%,–
CCCCn1c(CCC(=O)O)ccc1-c1cccs1,inactive,–
CC(C)C(=O)Nc1ccc(C(=O)N/N=C/c2cc(Br)cc(Br)c2O)cc1,inactive,–
NC(=O)CC(NC(=O)Cc1cccc2ccccc12)c1ccc(NCC2CC2)c([N+](=O)[O-])c1 (stereo not given),inconclusive: 3.4%,–
O=C(Cc1cccs1)N=Nc1c(O)[nH]c2ccccc12,–,"inconclusive: 25.1 µM [falling, partial curve]"
CCOc1cccc(CC(=O)NCc2ccc3c(c2)CCN3C(C)=O)c1OCC,inconclusive: 8.75%,–
Cc1ccc(Cn2c(=N)c(C(=O)NC3CCCCC3)cc3c(=O)n4ccccc4nc32)cc1,inactive,–
CN(CCC#N)C(=O)COC(=O)c1ccccc1C(=O)c1ccc(Cl)c([N+](=O)[O-])c1,inconclusive: 21.1%,–
Cc1nn(-c2ccc(Cl)c(Cl)c2Cl)c(=O)c2ccccc12,–,"inconclusive: 3.66 µM [falling, partial curve, poor fit]"
CS(=O)(=O)c1ccc2nc(NC(=O)CCN3C(=O)c4ccccc4C3=O)sc2c1,inconclusive: 5.32%,–
Cc1ccc(CN=c2c([N+](=O)[O-])nn(-c3cccc(Cl)c3)n2O)cc1,inactive,–
COc1ccc(-n2nc(C(=O)NCC(=O)N3CCN(Cc4ccccc4)CC3)c3ccccc3c2=O)cc1,inactive,–
O=C1CS/C(=N/N=C2CCCC2)N1,inconclusive: 13.7%,–
COc1ccc(CCCc2nnc(SCC(=O)Nc3cccc(C)c3)o2)cc1,–,"inconclusive: 2.06 µM [rising, partial curve]"
Fc1ccc(Cn2nnc3ccccc32)cc1,inconclusive: 0.738%,–
CCCN1CCC(=NNc2ccc(C(=O)O)cc2)CC1,–,"inconclusive: 0.708 µM [rising, full curve, poor fit]"

# Full records from above.
# COc1ccc(-n2nc(C(=O)NCC(=O)N3CCN(Cc4ccccc4)CC3)c3ccccc3c2=O)cc1 reads activity change, negative = inhibition: inactive
# NC(=O)c1sc2nc3c(c(-c4ccco4)c2c1N)CCC3 reads Potency: inconclusive: 4.11 µM [rising, partial curve]
# N/C(CS(=O)(=O)c1ccccc1)=N\OC(=O)c1ccc(F)cc1 reads activity change, negative = inhibition: inactive

# Going on with the list.

Structure (SMILES),"activity change, negative = inhibition",Potency
COc1cccc(OC(=O)CSc2nnc(-c3ccccc3Br)o2)c1,inconclusive: 14.6%,–
CC1=C(C(=O)Nc2ccccc2)C(c2ccco2)C(C#N)=C(SCC(=O)Nc2cccc(C)c2C)N1 (stereo not given),inconclusive: 10.1%,–
O=C(NCc1cc([N+](=O)[O-])ccc1O)c1cccnc1Sc1ccc(Cl)cc1,inconclusive: -1.62%,–
O=C(NCCS(=O)(=O)NCCc1ccccc1)c1ccc2c(c1)OCO2,inconclusive: -25%,–
COc1ccc2c(c1OC)C(=O)N1c3cccc(Cl)c3C(=O)OC21 (stereo not given),inactive,–
COc1ccccc1CCn1c(N)c(C#N)c2nc3ccccc3nc21,inconclusive: 10.7%,–
C=CCS(=O)(=O)N1CCCC(Cc2ccccc2C)(C(=O)OCC)C1 (stereo not given),inactive,–
CC1(C)CC(=O)C(C=Nc2ccc3[nH]ncc3c2)=C(O)C1,–,"inconclusive: 2.31 µM [cytotoxic, partial curve]"
O=C(NCCCn1ccnc1)c1cccc(S(=O)(=O)Nc2ccccc2F)c1,inconclusive: 6.49%,–
Cc1cccc(-c2noc(CN(C(=O)CCc3ccccc3)C(C)C)n2)c1,inactive,–
C=CCOC(=O)C(C#N)c1nc2ccccc2nc1N1CCN(Cc2ccc3c(c2)OCO3)CC1 (stereo not given),inconclusive: 10.3%,–
CC(=O)NC(=S)Nc1ccccc1N1CCCCC1,inactive,–
CCc1ccc(Sc2cc(C(=O)O)c3ccccc3n2)cc1,inconclusive: 13.1%,–
CNC(C)C#Cc1c(-c2cc(OC)c(OC)c(OC)c2)noc1C (stereo not given),inconclusive: -8.17%,–
COc1ccc(-c2ccc3c(c2)S(=O)(=O)c2cccc(C(=O)N4CCN(c5c(Cl)cncc5Cl)CC4)c2C3=O)cc1OC,inactive,–
CSc1nc2cc(C)nn2c(-c2ccccc2)c1C#N,inactive,–
Cc1ccsc1C(=O)NNC(=O)C1CC=CCC1C(=O)O (stereo not given),–,"inconclusive: 20.6 µM [falling, partial curve]"
CCN1CCC2(CC1)Oc1c(OC)cccc1C1CC(c3cccnc3)=NN12 (stereo not given),inconclusive: 11.7%,–
Cc1occc1C(=O)NNC(=O)COc1ccc(Br)cc1Br,inconclusive: 12.9%,–
COc1cc(C(=O)NCCCCCCNC(=O)c2cc(OC)c(OC)c(OC)c2)cc(OC)c1OC,inconclusive: 2.37%,–
CCCCc1c(O)nc2sc3cc(OC)ccc3n2c1=O,inconclusive: -9.31%,–
CCc1nnc(NC(=O)COc2ccc([N+](=O)[O-])cc2)s1,inconclusive: 9.73%,–
CCN1C(=O)[C@H]2[C@@H](c3ccc(-c4cccc(Cl)c4)c(OC)c3)N3CCCC[C@@]3(C(=O)OC)[C@H]2C1=O,inactive,–
O=[N+]([O-])c1ccc(-c2nc(Nc3cccc(O)c3)c3ccccc3n2)cc1,inconclusive: 0.192%,–
Cc1ccc(C2=Nc3c(ccc4ccccc34)C(c3ccncc3)=NN2)cc1,inconclusive: -10.5%,–
CCC(=O)Nc1cccc(-c2nc3ccccc3c(=O)o2)c1,–,"inconclusive: 28.2 µM [falling, single point]"
